# Reference: PMC5996148
# Values joined by “and” are separate entries in the source; they are usually repeats but may differ in a detail not shown here. Equal values may be shown once. This is one part of the list. For some assays here: Construct or isoform of the protein are uncertain.
# Columns and labels:
# Test in all cases: protein microarray (ProtoArray v5.0), streptavidin-Alexa Fluor 647
# Details in all cases: 3'-biotin; 20 mM Tris (pH 7.5), 5 mM MgCl2, 100 mM KCl, 0.1% Tween-20, A/T-rich and random oligonucleotide blockers; temperature not stated; high values mean tight binding
# MRPL10 (human) = system: MRPL10 (human)
# MRPL19 = MRPL19 (UniProt P49406)
# MRPL43 (human) = system: MRPL43 (human)
# MRPL44 (human) = system: MRPL44 (human)
# MRPL53 (human) = system: MRPL53 (human)
# MRS2L (human) = system: MRS2L (human)
# MS4A2 (human) = system: MS4A2 (human)
# MS4A4A (human) = system: MS4A4A (human)
# MSRA (human) = system: MSRA (human)
# MSRB3 (human) = system: MSRB3 (human)
# MT1M (human) = system: MT1M (human)
# MTAP (human) = system: MTAP (human)
# MTCP1 (human) = system: MTCP1 (human)
# MTHFR (human) = system: MTHFR (human)
# MTMR1 (human) = system: MTMR1 (human)
# MTMR14 (human) = system: MTMR14 (human)
# MTMR9 (human) = system: MTMR9 (human)
# MTTP (human) = system: MTTP (human)
# MTUS1 (human) = system: MTUS1 (human)
# MUCL1 (human) = system: MUCL1 (human)
sequence,measurement,setting,value
GGGAGGCTGAGGCAGG [G4-1 biotinylated (PQS2)],binding signal,MRPL10 (human),-0.284 z-score
same,binding signal,MRPL19,4.58 z-score
same,binding signal,MRPL43 (human),-0.316 z-score and -0.312 z-score and -0.337 z-score
same,binding signal,MRPL44 (human),-0.256 z-score
same,binding signal,MRPL53 (human),-0.294 z-score
same,binding signal,MRS2L (human),-0.345 z-score
same,binding signal,MS4A2 (human),-0.265 z-score
same,binding signal,MS4A4A (human),-0.281 z-score
same,binding signal,MSRA (human),-0.339 z-score
same,binding signal,MSRB3 (human),-0.332 z-score
same,binding signal,MT1M (human),-0.314 z-score
same,binding signal,MTAP (human),-0.348 z-score and -0.338 z-score
same,binding signal,MTCP1 (human),-0.281 z-score
same,binding signal,MTHFR (human),-0.347 z-score and -0.333 z-score
same,binding signal,MTMR1 (human),-0.334 z-score
same,binding signal,MTMR14 (human),-0.29 z-score
same,binding signal,MTMR9 (human),-0.274 z-score
same,binding signal,MTTP (human),-0.314 z-score
same,binding signal,MTUS1 (human),-0.314 z-score
same,binding signal,MUCL1 (human),-0.316 z-score

# A second format for part of the listing above.
sequence	measurement	setting	value
GGGAGGCTGAGGCAGG [G4-1 biotinylated (PQS2)]	binding signal	MRPL43 (human)	-0.316 z-score and -0.312 z-score and -0.337 z-score
same	binding signal	MUCL1 (human)	-0.316 z-score
